Results reported in PMC8274477.
No constants are given. Whether binding was seen depends on the method and setting. Some entries that bind do so weakly or less than the wild type.

Key:
Experiment in all cases: peptide or protein array; HuProt human proteome microarray; 5 ug/5 ml biotin-labelled LUBAC or OTULIN in solution, 1 h at room temperature; Cy5-streptavidin, scanned at 635 nm; BSA as negative control; hits: Z-score >= 3 and I_(Mean_Ratio) >= 1.4; both purified
ACO1 (human) = biological target: T1, ACO1 (human) (UniProt P21399)
T1 sequence: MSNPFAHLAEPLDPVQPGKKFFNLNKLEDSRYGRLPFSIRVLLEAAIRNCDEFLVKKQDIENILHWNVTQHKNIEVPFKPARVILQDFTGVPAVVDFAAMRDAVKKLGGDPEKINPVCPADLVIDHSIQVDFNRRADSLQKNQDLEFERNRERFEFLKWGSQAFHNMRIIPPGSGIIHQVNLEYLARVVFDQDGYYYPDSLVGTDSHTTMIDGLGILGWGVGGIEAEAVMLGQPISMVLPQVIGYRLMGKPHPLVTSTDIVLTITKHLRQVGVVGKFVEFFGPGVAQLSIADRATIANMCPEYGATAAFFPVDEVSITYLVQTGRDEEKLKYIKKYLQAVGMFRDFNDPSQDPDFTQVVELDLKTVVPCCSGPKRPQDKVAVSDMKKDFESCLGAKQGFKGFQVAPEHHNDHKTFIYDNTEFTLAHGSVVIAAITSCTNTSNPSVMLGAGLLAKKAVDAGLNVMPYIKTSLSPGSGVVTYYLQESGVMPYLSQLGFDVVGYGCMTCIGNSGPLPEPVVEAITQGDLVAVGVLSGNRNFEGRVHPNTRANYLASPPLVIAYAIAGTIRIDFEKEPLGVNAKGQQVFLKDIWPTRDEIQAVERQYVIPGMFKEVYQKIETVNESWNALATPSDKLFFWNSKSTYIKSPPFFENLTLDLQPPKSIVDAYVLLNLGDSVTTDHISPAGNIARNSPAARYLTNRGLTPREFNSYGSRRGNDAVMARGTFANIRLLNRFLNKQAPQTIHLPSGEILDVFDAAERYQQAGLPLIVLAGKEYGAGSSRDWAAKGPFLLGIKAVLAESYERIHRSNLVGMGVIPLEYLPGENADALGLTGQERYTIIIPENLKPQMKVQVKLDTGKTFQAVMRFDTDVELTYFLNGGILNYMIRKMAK

MPST (human) = biological target: T2, MPST (human) (UniProt P25325)
T2 sequence: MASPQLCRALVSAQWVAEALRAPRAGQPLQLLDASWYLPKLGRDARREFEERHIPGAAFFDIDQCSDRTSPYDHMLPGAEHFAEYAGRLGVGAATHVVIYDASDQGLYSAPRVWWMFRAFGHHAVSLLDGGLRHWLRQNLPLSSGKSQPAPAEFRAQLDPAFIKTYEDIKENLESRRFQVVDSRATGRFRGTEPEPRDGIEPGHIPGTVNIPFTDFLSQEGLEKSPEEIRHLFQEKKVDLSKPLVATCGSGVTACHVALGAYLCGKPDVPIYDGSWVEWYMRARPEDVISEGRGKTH

NECAP2 (human) = biological target: T3, NECAP2 (human) (UniProt Q9NVZ3)
T3 sequence: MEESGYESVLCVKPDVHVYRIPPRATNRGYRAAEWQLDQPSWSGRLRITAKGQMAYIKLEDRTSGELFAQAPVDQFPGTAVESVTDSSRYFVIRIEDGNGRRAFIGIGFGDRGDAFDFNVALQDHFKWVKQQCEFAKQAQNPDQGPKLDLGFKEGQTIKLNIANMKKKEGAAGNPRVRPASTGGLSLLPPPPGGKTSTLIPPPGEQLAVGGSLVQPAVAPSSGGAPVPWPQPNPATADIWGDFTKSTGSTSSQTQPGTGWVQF

PNKP (human) = PNKP (human) (UniProt Q96T60)
TIA1 (human) = biological target: T4, TIA1 (human) (UniProt P31483)
T4 sequence: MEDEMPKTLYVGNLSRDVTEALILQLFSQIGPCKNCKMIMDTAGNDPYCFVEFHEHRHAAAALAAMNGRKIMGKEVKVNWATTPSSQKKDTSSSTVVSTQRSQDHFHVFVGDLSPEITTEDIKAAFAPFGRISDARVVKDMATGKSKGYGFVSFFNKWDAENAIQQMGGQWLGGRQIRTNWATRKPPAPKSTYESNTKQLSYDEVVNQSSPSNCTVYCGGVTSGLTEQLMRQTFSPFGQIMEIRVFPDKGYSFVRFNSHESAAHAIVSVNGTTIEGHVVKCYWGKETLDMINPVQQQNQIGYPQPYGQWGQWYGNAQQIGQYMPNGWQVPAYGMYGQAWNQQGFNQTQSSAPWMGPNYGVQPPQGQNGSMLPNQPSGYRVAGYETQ

Measured: binding

linear ubiquitin chain assembly complex (LUBAC), purified as HIS-tagged HOIP with the subunit HOIL-1, biotin-labelled (from UniProt Q96EP0 1-1072; Q9BYM8 1-510)
binds: all assays above
